PubChem BioAssay AID493246 – Drosophila RNAi Screening Center, 2011

Assay: 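Genes fly cells need to grow and stay alive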 (primary screen)
Cell system: Drosophila Kc and S2R+ cells
Reagent: long dsRNA against Drosophila genes
Detection: 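Raw, unnormalised count of remaining cells in each well; per-plate z-scores of cell number underlie the calls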
Direction: Kc cell number and S2R+ cell number: higher = more cells remaining
Call rule: 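Active when the per-plate z-score of cell number is 3 or more in the direction of fewer cells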
The screen tested about 21,000 reagents; this is an unselected part of those that have a named target and a result. Over the whole deposit, 429 (2%) are marked active. 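Values are raw and not normalised between plates; calls rest on per-plate z-scores that were not deposited.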 A plus sign joins genes that one reagent is predicted to hit. The record does not give: the amount of reagent, the time to read-out.

gene,amplicon,"Kc cell number, rep 1","Kc cell number, rep 2","S2R+ cell number, rep 1","S2R+ cell number, rep 2",Call
CG15912,DRSC18105,1.43e6,1.43e6,1.03e6,1.14e6,inactive
Flo1 (Flotillin 1),DRSC07427,1.37e6,1.48e6,1.17e6,1.16e6,inactive
l(2)k01209 (lethal (2) k01209),DRSC06889,1.57e6,1.64e6,1.25e6,1.34e6,inactive
Sh3beta,DRSC11001,1.49e6,1.67e6,1.24e6,1.04e6,inactive
Cpr51A (Cuticular protein 51A),DRSC05969,1.50e6,1.48e6,1.32e6,1.37e6,inactive
Ravus,DRSC15126,1.40e6,1.38e6,1.07e6,1.20e6,inactive
Cyp6a23 (Cytochrome P450 6a23),DRSC07383,1.68e6,1.73e6,1.47e6,1.46e6,inactive
Plod (procollagen lysyl hydroxylase),DRSC10601,1.29e6,1.55e6,1.17e6,1.12e6,inactive
Plod (procollagen lysyl hydroxylase),DRSC10602,1.29e6,1.35e6,1.24e6,1.29e6,inactive
eIF2gamma (eukaryotic translation initiation factor 2 subunit gamma),DRSC13081,1.05e6,1.17e6,7.63e5,9.35e5,inactive
eIF2gamma (eukaryotic translation initiation factor 2 subunit gamma),DRSC16873,1.52e6,1.61e6,1.33e6,1.43e6,inactive
Hus1-like,DRSC12353,1.39e6,1.36e6,1.41e6,1.51e6,inactive
HP4 (Heterochromatin protein 4),DRSC10958,1.46e6,1.47e6,1.32e6,1.30e6,inactive
"E(spl)m4-BFM (Enhancer of split m4, Bearded family member)",DRSC16992,1.50e6,1.51e6,1.01e6,1.12e6,inactive
CG12375,DRSC02163,1.29e6,1.50e6,4.04e5,3.52e5,inactive
CG11899,DRSC16656,1.44e6,1.45e6,1.01e6,1.15e6,inactive
Hsc70-2 (Heat shock protein 70 cognate 2),DRSC16710,1.46e6,1.43e6,1.02e6,1.11e6,inactive
Ndae1 (Na[+]-driven anion exchanger 1),DRSC00975,1.53e6,1.64e6,9.84e5,1.12e6,inactive
Ndae1 (Na[+]-driven anion exchanger 1),DRSC02770,1.30e6,1.28e6,6.65e5,1.03e6,inactive
CG2955,DRSC00552,1.54e6,1.52e6,7.86e5,8.35e5,inactive
Madm (MLF1-adaptor molecule),DRSC12129,1.26e6,1.32e6,1.17e6,1.25e6,inactive
CG34426,DRSC09977,1.55e6,1.68e6,1.18e6,1.19e6,inactive
CG4998,DRSC10466,1.41e6,1.42e6,1.21e6,1.34e6,inactive
dy (dusky),DRSC20325,1.68e6,1.88e6,1.12e6,1.27e6,inactive
Sesn (Sestrin),DRSC04101,1.40e6,1.52e6,1.34e6,1.32e6,inactive
Sesn (Sestrin),DRSC04102,1.66e6,1.88e6,1.46e6,1.52e6,inactive
Sesn (Sestrin),DRSC04103,1.83e6,1.90e6,1.24e6,1.29e6,inactive
CG18659,DRSC06784,1.45e6,1.51e6,1.21e6,1.31e6,inactive
"E(spl)m8-HLH (Enhancer of split m8, helix-loop-helix)",DRSC16654,1.32e6,1.38e6,1.07e6,1.12e6,inactive
Cad87A (Cadherin 87A),DRSC16161,1.52e6,1.70e6,1.32e6,1.37e6,inactive
Sodh1 (Sorbitol dehydrogenase 1),DRSC12605,1.62e6,1.66e6,1.44e6,1.48e6,inactive
CG31789,DRSC01645,1.39e6,1.45e6,9.10e5,1.10e6,inactive
Fas2 (Fasciclin 2),DRSC17308,1.32e6,1.41e6,9.64e5,1.01e6,inactive
Fas2 (Fasciclin 2),DRSC17309,1.11e6,1.38e6,1.09e6,1.05e6,inactive
Fas2 (Fasciclin 2),DRSC18664,5.90e5,,8.71e5,,inactive
GluRIIE (Glutamate receptor IIE),DRSC13431,1.56e6,1.47e6,1.08e6,1.01e6,inactive
CG7650,DRSC10898,1.64e6,1.63e6,1.19e6,1.36e6,inactive
p130CAS,DRSC07862,1.58e6,1.54e6,1.03e6,1.21e6,inactive
p130CAS,DRSC08257,1.43e6,1.46e6,1.22e6,1.19e6,inactive
CR31824 (pseudo),DRSC01517,1.55e6,1.53e6,9.26e5,1.17e6,inactive
Ir20a (Ionotropic receptor 20a),DRSC20506,1.47e6,1.50e6,1.01e6,1.12e6,inactive
tea (telomere ends associated),DRSC06110,1.26e6,1.33e6,1.02e6,1.10e6,inactive
tea (telomere ends associated),DRSC06236,1.44e6,1.48e6,1.13e6,1.30e6,inactive
dtr (defective transmitter release),DRSC01847,5.06e5,,8.30e5,,inactive
phyl (phyllopod),DRSC07663,1.50e6,1.57e6,1.14e6,1.28e6,inactive
Hex-t1 (Hexokinase testis 1),DRSC16701,1.63e6,1.94e6,1.10e6,1.14e6,inactive
CG12824,DRSC06173,1.59e6,1.68e6,1.26e6,1.38e6,inactive
CG42552 (retired record),DRSC11512,1.51e6,1.62e6,1.20e6,1.35e6,inactive
ND-SGDH (NADH dehydrogenase (ubiquinone) SGDH subunit),DRSC11102,1.31e6,1.41e6,1.20e6,1.26e6,inactive
Drep2 (DNA fragmentation factor-related protein 2),DRSC07528,1.32e6,1.40e6,1.01e6,1.07e6,inactive
Blos4,DRSC10151,1.36e6,1.68e6,1.18e6,1.29e6,inactive
CG7309,DRSC03045,1.53e6,1.55e6,1.18e6,1.28e6,inactive
"AGBE (1,4-Alpha-Glucan Branching Enzyme)",DRSC06861,1.22e6,1.25e6,1.06e6,1.31e6,inactive
CG13907,DRSC08377,1.32e6,1.35e6,1.13e6,1.12e6,inactive
"MetRS-m (Methionyl-tRNA synthetase, mitochondrial)",DRSC16443,1.51e6,1.56e6,1.15e6,1.24e6,inactive
"MetRS-m (Methionyl-tRNA synthetase, mitochondrial)",DRSC16515,1.12e6,1.04e6,8.57e5,9.23e5,inactive
"alpha4GT1 (alpha1,4-galactosyltransferase 1)",DRSC00488,1.38e6,1.36e6,8.14e5,9.54e5,inactive
mRpL49 (mitochondrial ribosomal protein L49),DRSC19908,1.44e6,1.42e6,9.32e5,1.00e6,inactive
upd2 (unpaired 2),DRSC19969,1.74e6,1.82e6,1.19e6,1.33e6,inactive
Mnat9 (microtubule-associated Nat9),DRSC14325,1.45e6,1.47e6,9.68e5,1.12e6,inactive
drn (doctor no),DRSC15147,1.56e6,1.49e6,1.29e6,1.50e6,inactive
janA (janus A),DRSC16972,1.64e6,1.76e6,1.13e6,1.20e6,inactive
Gpo1 (Glycerophosphate oxidase 1),DRSC07128,1.37e6,1.41e6,1.10e6,1.16e6,inactive
Hel25E (Helicase at 25E),DRSC03342,9.78e5,1.07e6,3.52e5,6.92e5,inactive
RpL23A (Ribosomal protein L23A),DRSC08694,1.09e6,1.14e6,7.19e5,7.86e5,inactive
ppk24 (pickpocket 24),DRSC15093,1.48e6,1.56e6,1.07e6,1.21e6,inactive
Hesr (HES-related),DRSC19965,1.40e6,1.48e6,1.10e6,1.16e6,inactive
CG13717 (retired record),DRSC08324,1.48e6,1.40e6,1.04e6,1.11e6,inactive
CG13717 (retired record),DRSC08326,1.50e6,1.47e6,8.71e5,1.01e6,inactive
promL (prominin-like),DRSC08733,9.51e5,1.21e6,1.12e6,7.91e5,inactive
RhoBTB (Rho-related BTB domain containing),DRSC11877,1.41e6,1.46e6,1.24e6,1.31e6,inactive
Mvk + CG33672 + spt4,DRSC05356,1.52e6,1.50e6,9.93e5,1.10e6,inactive
Mvk + CG33672 + spt4,DRSC06628,1.22e6,1.26e6,1.20e6,1.23e6,inactive
TwdlF (TweedleF),DRSC12225,1.58e6,1.59e6,1.24e6,1.33e6,inactive
CG2865,DRSC18527,5.06e5,,9.00e5,,inactive

Look-ups from the entries so far.
Hex-t1 (Hexokinase testis 1) [DRSC16701], Call = inactive
Value of Mnat9 (microtubule-associated Nat9) [DRSC14325] under “S2R+ cell number, rep 1”: 9.68e5
Under “Kc cell number, rep 1”, CG13907 [DRSC08377] has 1.32e6
Sodh1 (Sorbitol dehydrogenase 1) [DRSC12605], Call → inactive
For “Call”, HP4 (Heterochromatin protein 4) [DRSC10958] is entered as inactive
For “Kc cell number, rep 2”, Sesn (Sestrin) [DRSC04103] reads 1.90e6
